The target in experiment [1] is mEGFP-iso6 (FMRP nuclear isoform iso6 fused to GFP) (human) (UniProt Q06787). Briefly: affinity purification with mass spectrometry; first screen (mild stringency): GFP-Trap magnetic agarose on whole-cell lysate of U2OS stably expressing GFP-iso6, lysate treated with turbonuclease, 2 h at 4 C; LC-MS/MS; SAINTexpress against 2 GFP-free U2OS controls, <1% FDR and fold change >1.5.

Protein sequences, listed by entry. Tags and fused reporters are not part of them.
UniProt P18754: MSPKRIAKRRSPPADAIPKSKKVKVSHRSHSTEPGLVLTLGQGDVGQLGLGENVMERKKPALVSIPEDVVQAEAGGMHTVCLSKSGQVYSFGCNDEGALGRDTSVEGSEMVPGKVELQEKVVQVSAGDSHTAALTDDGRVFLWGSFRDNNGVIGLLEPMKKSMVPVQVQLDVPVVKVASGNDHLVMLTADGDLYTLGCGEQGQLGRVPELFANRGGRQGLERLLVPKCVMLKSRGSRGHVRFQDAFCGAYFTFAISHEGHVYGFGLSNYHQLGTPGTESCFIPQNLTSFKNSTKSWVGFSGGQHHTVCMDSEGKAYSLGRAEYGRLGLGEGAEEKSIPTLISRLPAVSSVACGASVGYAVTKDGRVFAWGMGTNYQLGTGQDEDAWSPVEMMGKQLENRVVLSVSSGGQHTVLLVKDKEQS
UniProt Q13242: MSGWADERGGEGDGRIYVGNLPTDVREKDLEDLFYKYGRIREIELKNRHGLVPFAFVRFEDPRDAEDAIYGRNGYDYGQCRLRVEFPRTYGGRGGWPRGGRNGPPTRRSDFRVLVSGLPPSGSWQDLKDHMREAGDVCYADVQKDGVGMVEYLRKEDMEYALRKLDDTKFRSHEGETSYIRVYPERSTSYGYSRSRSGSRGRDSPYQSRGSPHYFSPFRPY
UniProt Q02880: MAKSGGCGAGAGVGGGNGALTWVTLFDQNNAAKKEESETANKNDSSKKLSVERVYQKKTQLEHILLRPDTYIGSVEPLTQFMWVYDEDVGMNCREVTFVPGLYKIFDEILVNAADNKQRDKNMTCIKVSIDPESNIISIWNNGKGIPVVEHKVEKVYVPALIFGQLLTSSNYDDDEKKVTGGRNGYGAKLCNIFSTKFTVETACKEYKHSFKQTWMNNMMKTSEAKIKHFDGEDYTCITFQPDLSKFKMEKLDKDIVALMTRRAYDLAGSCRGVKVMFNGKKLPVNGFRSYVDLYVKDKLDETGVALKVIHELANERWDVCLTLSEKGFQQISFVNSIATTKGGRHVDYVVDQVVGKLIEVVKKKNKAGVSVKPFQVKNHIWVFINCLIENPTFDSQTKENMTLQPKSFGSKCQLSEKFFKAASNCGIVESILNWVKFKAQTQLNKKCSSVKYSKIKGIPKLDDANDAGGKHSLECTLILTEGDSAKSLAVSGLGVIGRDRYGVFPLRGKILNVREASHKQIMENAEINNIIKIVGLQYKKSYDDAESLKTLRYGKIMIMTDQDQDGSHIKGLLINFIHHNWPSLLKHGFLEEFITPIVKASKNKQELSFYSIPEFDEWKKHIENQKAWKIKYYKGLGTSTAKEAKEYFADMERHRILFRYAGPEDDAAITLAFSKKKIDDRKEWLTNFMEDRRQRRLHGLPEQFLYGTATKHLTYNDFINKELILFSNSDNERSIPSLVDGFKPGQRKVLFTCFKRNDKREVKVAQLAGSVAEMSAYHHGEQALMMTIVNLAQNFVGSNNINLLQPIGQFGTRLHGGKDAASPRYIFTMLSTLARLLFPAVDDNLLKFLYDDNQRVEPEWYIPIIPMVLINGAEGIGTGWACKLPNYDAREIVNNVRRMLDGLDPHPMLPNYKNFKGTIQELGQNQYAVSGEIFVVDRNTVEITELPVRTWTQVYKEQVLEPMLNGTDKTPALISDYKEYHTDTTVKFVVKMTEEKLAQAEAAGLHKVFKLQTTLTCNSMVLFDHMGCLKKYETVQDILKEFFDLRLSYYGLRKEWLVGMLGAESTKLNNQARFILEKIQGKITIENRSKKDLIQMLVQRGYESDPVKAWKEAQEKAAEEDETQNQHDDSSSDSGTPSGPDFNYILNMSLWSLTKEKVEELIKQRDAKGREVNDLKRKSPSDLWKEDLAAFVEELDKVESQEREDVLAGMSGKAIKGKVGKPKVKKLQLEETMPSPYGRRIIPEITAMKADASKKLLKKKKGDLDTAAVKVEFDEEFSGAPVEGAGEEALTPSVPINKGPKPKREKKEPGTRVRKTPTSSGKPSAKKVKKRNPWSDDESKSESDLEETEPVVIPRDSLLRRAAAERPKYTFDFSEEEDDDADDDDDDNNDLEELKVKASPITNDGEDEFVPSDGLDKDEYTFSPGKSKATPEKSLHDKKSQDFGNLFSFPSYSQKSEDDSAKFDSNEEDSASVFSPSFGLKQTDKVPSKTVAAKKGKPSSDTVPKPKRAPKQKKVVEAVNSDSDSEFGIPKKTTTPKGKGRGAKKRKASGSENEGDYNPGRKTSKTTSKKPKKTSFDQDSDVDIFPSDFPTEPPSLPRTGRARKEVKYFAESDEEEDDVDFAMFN

Experiment [2] shares this target. The experiment can be described thus: affinity purification with mass spectrometry; stringent conditions: GFP-Trap on whole-cell lysate of U2OS stably expressing GFP-iso6 or GFP-iso1, half the number of cells of the first screen, 6 GFP-free U2OS controls, <=1% FDR; cells mock-treated or treated with aphidicolin (APH) for 24 h.

No constants are given. Whether binding was seen depends on the method and setting. Binding seen in cells or lysates may run through a third protein. These calls come from enrichment with a bait or labelling near it, and not all partners need be listed.

For BRCA2 (from UniProt P51587 1-3418), the binding entry in experiment [1] is “binds”.

For the molecule ELAVL1 (from UniProt Q15717 1-326), the binding entry in experiment [1] is given as “binds”.

With POLR1A (from UniProt O95602 1-1720), the binding result in experiment [1] is “binds”.

Turning to POLR1E (from UniProt Q9GZS1 1-419), the binding result in experiment [1] is “binds”.

On to RCC1 (from UniProt P18754 1-421), for which the binding result in experiment [1] is recorded as “binds”.

Regarding SMARCA5 (from UniProt O60264 1-1052), in experiment [1], the binding entry is “binds”.

On to SMARCD2 (from UniProt Q92925 1-531), for which the binding result in experiment [1] is recorded as “binds”.

On to SMARCE1 (from UniProt Q969G3 1-411), for which, in experiment [1], the binding result was “binds”.

With SRSF9 (from UniProt Q13242 1-221), the binding result in experiment [1] is “binds”.

With SUPT16H (from UniProt Q9Y5B9 1-1047), the binding entry in experiment [1] is “binds”.

As for TOP2B (from UniProt Q02880 1-1626), the binding result in experiment [1] was “binds”.

B1: NOP9 (protein, UniProt Q86U38 1-636)
chain: MGQGPRSPHKVGRRFPAGGKRGRGAKGSGRPLPGRKRQPWPPPDGRSEPAPDSHPHLSPEALGYFRRALSALKEAPETGEERDLMVHNIMKEVETQALALSTNRTGSEMLQELLGFSPLKPLCRVWAALRSNLRTVACHRCGVHVLQSALLQLPRLLGSAAEEEEEEEEDGKDGPTETLEELVLGLAAEVCDDFLVYCGDTHGSFVVRTLLQVLGGTILESERARPRGSQSSEAQKTPAQECKPADFEVPETFLNRLQDLSSSFLKDIAVFITDKISSFCLQVALQVLHRKLPQFCAHLCNAVIGYLSTRGSSVDGSPLLLFLRDQTSSRLLEQVLLVLEPPRLQSLFEEHLQGQLQTLAAHPIANFPLQRLLDAVTTPELLSPVFEELSPVLEAVLAQGHPGVVIALVGACRRVGAYQAKVLQLLLEAFHCAEPSSRQVACVPLFATLMAYEVYYGLTEEEGAVPAEHQVAMAAARALGDVTVLGSLLLQHLLHFSTPGLVLRSLGALTGPQLLSLAQSPAGSHVLDAILTSPSVTRKLRRRVLQNLKGQYVALACSRHGSRVLDAIWSGAALRARKEIAAELGEQNQELIRDPFGHHVARNVALTTFLKRREAWEQQQGAVAKRRRALNSILED
Regarding B1, in experiment [1], the binding entry is given as “binds”.

B2: DDX52 (protein, UniProt Q9Y2R4 1-599)
chain: MDVHDLFRRLGAGAKFDTRRFSADAARFQIGKRKYDFDSSEVLQGLDFFGNKKSVPGVCGASQTHQKPQNGEKKEESLTERKREQSKKKRKTMTSEIASQEEGATIQWMSSVEAKIEDKKVQRESKLTSGKLENLRKEKINFLRNKHKIHVQGTDLPDPIATFQQLDQEYKINSRLLQNILDAGFQMPTPIQMQAIPVMLHGRELLASAPTGSGKTLAFSIPILMQLKQPANKGFRALIISPTRELASQIHRELIKISEGTGFRIHMIHKAAVAAKKFGPKSSKKFDILVTTPNRLIYLLKQDPPGIDLASVEWLVVDESDKLFEDGKTGFRDQLASIFLACTSHKVRRAMFSATFAYDVEQWCKLNLDNVISVSIGARNSAVETVEQELLFVGSETGKLLAVRELVKKGFNPPVLVFVQSIERAKELFHELIYEGINVDVIHAERTQQQRDNTVHSFRAGKIWVLICTALLARGIDFKGVNLVINYDFPTSSVEYIHRIGRTGRAGNKGKAITFFTEDDKPLLRSVANVIQQAGCPVPEYIKGFQKLLSKQKKKMIKKPLERESISTTPKCFLEKAKDKQKKVTGQNSKKKVALEDKS
Regarding B2, the binding result in experiment [1] is on record as “binds”.

B3: NOP16 (protein, UniProt Q9Y3C1 1-178)
chain: MPKAKGKTRRQKFGYSVNRKRLNRNARRKAAPRIECSHIRHAWDHAKSVRQNLAEMGLAVDPNRAVPLRKRKVKAMEVDIEERPKELVRKPYVLNDLEAEASLPEKKGNTLSRDLIDYVRYMVENHGEDYKAMARDEKNYYQDTPKQIRSKINVYKRFYPAEWQDFLDSLQKRKMEVE
As for B3, the binding entry in experiment [1] is recorded as “binds”.

B4: SRSF7 (protein, UniProt Q16629 1-238)
chain: MSRYGRYGGETKVYVGNLGTGAGKGELERAFSYYGPLRTVWIARNPPGFAFVEFEDPRDAEDAVRGLDGKVICGSRVRVELSTGMPRRSRFDRPPARRPFDPNDRCYECGEKGHYAYDCHRYSRRRRSRSRSRSHSRSRGRRYSRSRSRSRGRRSRSASPRRSRSISLRRSRSASLRRSRSGSIKGSRYFQSPSRSRSRSRSISRPRSSRSKSRSPSPKRSRSPSGSPRRSASPERMD
As to B4, the binding result in experiment [1] is “binds”.

B5: PPA2 (protein, UniProt Q9H2U2 33-334)
chain: ALYHTEERGQPCSQNYRLFFKNVTGHYISPFHDIPLKVNSKEENGIPMKKARNDEYENLFNMIVEIPRWTNAKMEIATKEPMNPIKQYVKDGKLRYVANIFPYKGYIWNYGTLPQTWEDPHEKDKSTNCFGDNDPIDVCEIGSKILSCGEVIHVKILGILALIDEGETDWKLIAINANDPEASKFHDIDDVKKFKPGYLEATLNWFRLYKVPDGKPENQFAFNGEFKNKAFALEVIKSTHQCWKALLMKKCNGGAINCTNVQISDSPFRCTQEEARSLVESVSSSPNKESNEEEQVWHFLGK
For B5, the binding result in experiment [2] was “binds”.

B6: DDX50 (protein, UniProt Q9BQ39 1-737)
chain: MPGKLLWGDIMELEAPLEESESQKKERQKSDRRKSRHHYDSDEKSETRENGVTDDLDAPKAKKSKMKEKLNGDTEEGFNRLSDEFSKSHKSRRKDLPNGDIDEYEKKSKRVSSLDTSTHKSSDNKLEETLTREQKEGAFSNFPISEETIKLLKGRGVTYLFPIQVKTFGPVYEGKDLIAQARTGTGKTFSFAIPLIERLQRNQETIKKSRSPKVLVLAPTRELANQVAKDFKDITRKLSVACFYGGTSYQSQINHIRNGIDILVGTPGRIKDHLQSGRLDLSKLRHVVLDEVDQMLDLGFAEQVEDIIHESYKTDSEDNPQTLLFSATCPQWVYKVAKKYMKSRYEQVDLVGKMTQKAATTVEHLAIQCHWSQRPAVIGDVLQVYSGSEGRAIIFCETKKNVTEMAMNPHIKQNAQCLHGDIAQSQREITLKGFREGSFKVLVATNVAARGLDIPEVDLVIQSSPPQDVESYIHRSGRTGRAGRTGICICFYQPRERGQLRYVEQKAGITFKRVGVPSTMDLVKSKSMDAIRSLASVSYAAVDFFRPSAQRLIEEKGAVDALAAALAHISGASSFEPRSLITSDKGFVTMTLESLEEIQDVSCAWKELNRKLSSNAVSQITRMCLLKGNMGVCFDVPTTESERLQAEWHDSDWILSVPAKLPEIEEYYDGNTSSNSRQRSGWSSGRSGRSGRSGGRSGGRSGRQSRQGSRSGSRQDGRRRSGNRNRSRSGGHKRSFD
Turning to B6, the binding entry in experiment [1] is “binds”.

B7: DDX51 (protein, UniProt Q8N8A6 1-666)
chain: MALFYVARYPGPDAAAAAGPEGAEAGAHGRARALLERLQSRARERQQQREPAQTEAAASTEPATRRRRRPRRRRRVNDAEPGSPEAPQGKRRKADGEDAGAESNEEAPGEPSAGSSEEAPGEPSAGSSEEAPGERSTSASAEAAPDGPALEEAAGPLVPGLVLGGFGKRKAPKVQPFLPRWLAEPNCVRRNVTEDLVPIEDIPDVHPDLQKQLRAHGISSYFPVQAAVIPALLESAACGFLVGRGGYRPSDLCVSAPTGSGKTLAFVIPVVQALLSRVVCHIRALVVLPTKELAQQVSKVFNIYTDATPLRVSLVTGQKSLAKEQESLVQKTADGYRCLADIVVATPGRLVDHIDQTPGFSLQQLRFLIIDEADRMIDSMHQSWLPRVVAAAFQSEDPADPCALLQRRQAQAVTAASTCCPQMPLQKLLFSATLTQNPEKLQQLGLHQPRLFSTGLAHRGLEDTDGDGDSGKYAFPVGLTHHYVPCSLSSKPLVVLHLVLEMGFSRVLCFTNSRENSHRLFLLVQAFGGVDVAEFSSRYGPGQRRMILKQFEQGKIQLLISTDATARGIDVQGVELVVNYDAPQYLRTYVHRVGRTARAGKTGQAFTLLLKVQERRFLRMLTEAGAPELQRHELSSKLLQPLVPRYEEALSQLEESVKEERKQRAA
As to B7, the binding entry in experiment [1] is given as “binds”.

B8: WDR46 (protein, UniProt O15213 1-610)
chain: METAPKPGKDVPPKKDKLQTKRKKPRRYWEEETVPTTAGASPGPPRNKKNRELRPQRPKNAYILKKSRISKKPQVPKKPREWKNPESQRGLSGTQDPFPGPAPVPVEVVQKFCRIDKSRKLPHSKAKTRSRLEVAEAEEEETSIKAARSELLLAEEPGFLEGEDGEDTAKICQADIVEAVDIASAAKHFDLNLRQFGPYRLNYSRTGRHLAFGGRRGHVAALDWVTKKLMCEINVMEAVRDIRFLHSEALLAVAQNRWLHIYDNQGIELHCIRRCDRVTRLEFLPFHFLLATASETGFLTYLDVSVGKIVAALNARAGRLDVMSQNPYNAVIHLGHSNGTVSLWSPAMKEPLAKILCHRGGVRAVAVDSTGTYMATSGLDHQLKIFDLRGTYQPLSTRTLPHGAGHLAFSQRGLLVAGMGDVVNIWAGQGKASPPSLEQPYLTHRLSGPVHGLQFCPFEDVLGVGHTGGITSMLVPGAGEPNFDGLESNPYRSRKQRQEWEVKALLEKVPAELICLDPRALAEVDVISLEQGKKEQIERLGYDPQAKAPFQPKPKQKGRSSTASLVKRKRKVMDEEHRDKVRQSLQQQHHKEAKAKPTGARPSALDRFVR
B8: the binding entry in experiment [1] was “binds”.

B9: SRSF2 (protein, UniProt Q01130 1-221)
chain: MSYGRPPPDVEGMTSLKVDNLTYRTSPDTLRRVFEKYGRVGDVYIPRDRYTKESRGFAFVRFHDKRDAEDAMDAMDGAVLDGRELRVQMARYGRPPDSHHSRRGPPPRRYGGGGYGRRSRSPRRRRRSRSRSRSRSRSRSRSRYSRSKSRSRTRSRSRSTSKSRSARRSKSKSSSVSRSRSRSRSRSRSRSPPPVSKRESKSRSRSKSPPKSPEEEGAVSS
In the case of B9, in experiment [1], the binding result is “binds”.

B10: PLBD2 (protein, UniProt Q8NHP8 42-589)
chain: IPAPGGRWARDGQVPPASRSRSVLLDVSAGQLLMVDGRHPDAVAWANLTNAIRETGWAFLELGTSGQYNDSLQAYAAGVVEAAVSEELIYMHWMNTVVNYCGPFEYEVGYCERLKSFLEANLEWMQEEMESNPDSPYWHQVRLTLLQLKGLEDSYEGRVSFPAGKFTIKPLGFLLLQLSGDLEDLELALNKTKIKPSLGSGSCSALIKLLPGQSDLLVAHNTWNNYQHMLRVIKKYWLQFREGPWGDYPLVPGNKLVFSSYPGTIFSCDDFYILGSGLVTLETTIGNKNPALWKYVRPRGCVLEWVRNIVANRLASDGATWADIFKRFNSGTYNNQWMIVDYKAFIPGGPSPGSRVLTILEQIPGMVVVADKTSELYQKTYWASYNIPSFETVFNASGLQALVAQYGDWFSYDGSPRAQIFRRNQSLVQDMDSMVRLMRYNDFLHDPLSLCKACNPQPNGENAISARSDLNPANGSYPFQALRQRSHGGIDVKVTSMSLARILSLLAASGPTWDQVPPFQWSTSPFSGLLHMGQPDLWKFAPVKVSWD
In the case of B10, the binding entry in experiment [2] is recorded as “binds”.

For the origin of these results see publication PMC10742089.
